Our source for the binding signal values is PMC7819943, “Rice protein-binding microarrays: a tool to detect cis-acting elements near promoter regions in rice”.

The chains behind the UniProt entries cited, without tags or fusion partners.
UniProt Q0JBA9, entry or part of it: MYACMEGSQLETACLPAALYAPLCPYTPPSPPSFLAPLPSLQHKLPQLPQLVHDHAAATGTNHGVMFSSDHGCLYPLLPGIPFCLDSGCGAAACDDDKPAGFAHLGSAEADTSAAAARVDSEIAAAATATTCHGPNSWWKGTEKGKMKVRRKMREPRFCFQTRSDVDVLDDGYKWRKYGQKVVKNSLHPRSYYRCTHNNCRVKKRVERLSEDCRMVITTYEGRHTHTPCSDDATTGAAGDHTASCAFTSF

This is one part of the list.

The assay addresses OsWRKY34 (Oryza sativa, UniProt Q0JBA9 1-250). The experiment in a line: protein-binding microarray (RPBM); PBS, 2% BSA, 51.3 ng/ul salmon testes DNA, 50 uM zinc acetate, 200 nM TF, 25 C, 1 h; high values mean tight binding. The note with it: protein: recombinant; tags: N-terminal polyhistidine and DsRed monomer fusion (pET32a); label: CyDye5-dUTP incorporated in the synthesized complementary strand; 3' TTTTT single-stranded linker to array surface; dsDNA, one strand shown. An outline of the steps:
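Binding signal is defined as the fluorescence intensity of each feature in arbitrary units, read on an Axon 4000B scanner. Transcription factors with N-terminal polyhistidine and DsRed fusions came from E. coli BL21-CodonPlus and were purified on Ni–NTA. They were incubated at 200 nM for 1 h at 25 °C on a custom Agilent array that had been made double-stranded with Cy5-dUTP, with 50 µM zinc acetate present, and the array was washed.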
Take “ATGTTGCCACTTTCATATGTCGAACAATTAGTACTTATATCGGAGTCACCTAGTGCAG”: the binding signal is 9290 fluorescence intensity (a.u.). The value for “CGCTGAGTCGAACGGCACTGTCATTTATTTTTTTTTAGTTCGGAGTCACCTAGTGCAG” was 9360 fluorescence intensity (a.u.).

“CTAAACCGCTTCCTAACCACATAGTTAATTGTATATATGCCGGAGTCACCTAGTGCAG”: the binding signal was 8670 fluorescence intensity (a.u.). The value for “TTCGTTTGCACTTGCATCCACGTCGTTCGGTAAATTTTTTCGGAGTCACCTAGTGCAG” was 9350 fluorescence intensity (a.u.); that for “TTTCACCGCTCTCTCTCTCTCTCTCTCTCTCTCTCTCTCTCGGAGTCACCTAGTGCAG” was 8290 fluorescence intensity (a.u.).

On to “TTGGGGTTAACCTGGTCTGAATCGGTGATGTGGGAGGGGACGGAGTCACCTAGTGCAG”, for which the binding signal was 13000 fluorescence intensity (a.u.). Turning to “ATCTTGAGAGGTCACAGATATCCTGATCCTGCTGTTTTTTCGGAGTCACCTAGTGCAG”, the binding signal was 8300 fluorescence intensity (a.u.). For “CACCATCTATCACTTGCTCTACCAACGCCGATTTTTACTGCGGAGTCACCTAGTGCAG”, the binding signal is 12200 fluorescence intensity (a.u.). With “GTATTCGCAGCCATCCGTCCATCCGTGTCAGCGTCACTCACGGAGTCACCTAGTGCAG” the figure was 10200 fluorescence intensity (a.u.). With “GCATCCTCCTAATCCACCCACAGAGCAACCGGTATGTTCTCGGAGTCACCTAGTGCAG” the figure was 8900 fluorescence intensity (a.u.); with “GTCTTTTTCTCAACTCCAAACTTCAACTTTCTTGTTTTTCCGGAGTCACCTAGTGCAG”, 8550 fluorescence intensity (a.u.).

In the case of “GACTATATTCATCAAATTTCACTCGATTTGTACATTTTTACGGAGTCACCTAGTGCAG”, the binding signal was 9110 fluorescence intensity (a.u.). With “CCCCAATGCATTTCTCTCTCTACCTGCGTGTTTGACTGCACGGAGTCACCTAGTGCAG” the figure was 11300 fluorescence intensity (a.u.). The value for “AACGATTTCTTCAGCATTTTCCATCCCCGCGGCTTCTTCTCGGAGTCACCTAGTGCAG” was 8230 fluorescence intensity (a.u.); that for “TTCTTCGTTTTTCTGAGTACGATCTCCCAGGGTTATAATCCGGAGTCACCTAGTGCAG” was 8850 fluorescence intensity (a.u.); that for “TTCAGTCTGCCACACTGTCGTTTTTTTGCTTTCATGGTTTCGGAGTCACCTAGTGCAG” was 8900 fluorescence intensity (a.u.). As for “GGGCCGGTGTTTTCGGTTTGTGCGGTGCGCGGCATGTGTACGGAGTCACCTAGTGCAG”, the binding signal was 8370 fluorescence intensity (a.u.).

“AATGTTCAGTCTCAGGTATTTATGAGCCCTGGAGCCTTATCGGAGTCACCTAGTGCAG”: the binding signal was 8230 fluorescence intensity (a.u.). With “GTCCTCAGCCACTACTGCCGTTGTTGACACGCCGTCCATTCGGAGTCACCTAGTGCAG” the figure was 8430 fluorescence intensity (a.u.); with “GGGAAGACGGTGGGGCGGGGACAGAGGTAGGGGAAGGAGGCGGAGTCACCTAGTGCAG”, 12600 fluorescence intensity (a.u.). With “GGATCATCACTGTGAGCCTGTTGGTTTGTTTGTAGGAGTTCGGAGTCACCTAGTGCAG” the figure was 11100 fluorescence intensity (a.u.). With “TATTCCAGTCAACAGGCCACATTCTCCCACATGCCTTGATCGGAGTCACCTAGTGCAG” the figure was 8700 fluorescence intensity (a.u.); with “TGACAGTGTGATGTGCTTGTTCGCTCTGATTTGATTTTGGCGGAGTCACCTAGTGCAG”, 8050 fluorescence intensity (a.u.). On to “ATCTGCCGGGTTTCCTAACTTTTATGTTCCATTTCATTTTCGGAGTCACCTAGTGCAG”, for which the binding signal was 9270 fluorescence intensity (a.u.). With “TATTCTATACTCCGGGATTGGCGTTTTCTTTTTCGCGGCACGGAGTCACCTAGTGCAG” the figure was 9240 fluorescence intensity (a.u.); with “CGACCGTTTTCAACCGTATGTATTAAGTAATGTTGTATTTCGGAGTCACCTAGTGCAG”, 9180 fluorescence intensity (a.u.). The value for “AGTAGTATCATTACCACGCTTATCTGTACTTTGCAAGTTACGGAGTCACCTAGTGCAG” was 8140 fluorescence intensity (a.u.); that for “TGCTGACATCATCTTCGTAGCCTCAAACACACTCTAATTTCGGAGTCACCTAGTGCAG” was 10400 fluorescence intensity (a.u.). The value for “ACTTAGAGCAACTTCAACAGACTCTTTATTTAGCTCTCCACGGAGTCACCTAGTGCAG” was 8030 fluorescence intensity (a.u.). Regarding “GTCTTCCTGCGCTGCCTCTCGCCGTCTCGCGGATCATCGTCGGAGTCACCTAGTGCAG”, the binding signal was 8240 fluorescence intensity (a.u.). The value for “CACTACTACGTCGTCCAGTGTAGTTTGGGCCGTTTGTATTCGGAGTCACCTAGTGCAG” was 8810 fluorescence intensity (a.u.); that for “ATTTGGTTACGAAATCTTTTGATTCTACTGTCTGGATTTTCGGAGTCACCTAGTGCAG” was 8080 fluorescence intensity (a.u.); that for “GACTTTCCGACCCTAACTCAGTTTTAGCTTCCGCATAAAGCGGAGTCACCTAGTGCAG” was 11400 fluorescence intensity (a.u.). The value for “AGATAAGGCCGCGCGCTCTCCACCACCACGGCCGCGAATGCGGAGTCACCTAGTGCAG” was 8440 fluorescence intensity (a.u.); that for “GGGTTCTTTCTGTAGTAGGGGTTTTTCTTTGTTTTCTCTTCGGAGTCACCTAGTGCAG” was 17700 fluorescence intensity (a.u.). The value for “CGATTTCGCACGCCACCGTAAACTTCCTTTAGTTTTTTTTCGGAGTCACCTAGTGCAG” was 12700 fluorescence intensity (a.u.). On to “CCGAGTTTGGCGTTCTCTCCCAATTGTTTCTTCGATATTTCGGAGTCACCTAGTGCAG”, for which the binding signal was 13300 fluorescence intensity (a.u.). The value for “TCGTGGTGGTGGTGGTGGTGGAAGTTAGGGTTTGAGGGTTCGGAGTCACCTAGTGCAG” was 17300 fluorescence intensity (a.u.); that for “CTCCGCGTCTAGCCGCGGGTGACGTCAGCACCACCACCATCGGAGTCACCTAGTGCAG” was 8620 fluorescence intensity (a.u.); that for “GAGCACACTGTAATGCAGCCAAATATATTGCTCTATTTCTCGGAGTCACCTAGTGCAG” was 9160 fluorescence intensity (a.u.). With “GGGGATACCAGTATTGGGTACTCGGGATTTGGCCAACATTCGGAGTCACCTAGTGCAG” the figure was 9160 fluorescence intensity (a.u.); with “ACCCTCCTGCTGCGCCTTTGACCCGGCCATCCGTTCTCTCCGGAGTCACCTAGTGCAG”, 13400 fluorescence intensity (a.u.).
